No constants are given. Whether binding was seen depends on the method and setting. In cells and extracts the contact can be indirect. Some binding calls cover weakened binding; strength is not graded here. Sequences can lack the tags named with a protein.
Target: T1, TAP-tagged Rtt105 (S. cerevisiae) (UniProt P40063)
T1 sequence: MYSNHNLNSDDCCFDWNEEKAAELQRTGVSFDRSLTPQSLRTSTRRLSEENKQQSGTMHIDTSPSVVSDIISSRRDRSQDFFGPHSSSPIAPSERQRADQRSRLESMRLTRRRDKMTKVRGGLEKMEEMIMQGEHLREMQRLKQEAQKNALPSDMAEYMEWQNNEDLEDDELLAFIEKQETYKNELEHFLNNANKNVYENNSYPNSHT
Assay: co-IP

The chains behind the UniProt entries cited, without tags or fusion partners. Where a name states a change or a piece, a line headed by the entry shows the natural chain unless it says otherwise.
UniProt P22336: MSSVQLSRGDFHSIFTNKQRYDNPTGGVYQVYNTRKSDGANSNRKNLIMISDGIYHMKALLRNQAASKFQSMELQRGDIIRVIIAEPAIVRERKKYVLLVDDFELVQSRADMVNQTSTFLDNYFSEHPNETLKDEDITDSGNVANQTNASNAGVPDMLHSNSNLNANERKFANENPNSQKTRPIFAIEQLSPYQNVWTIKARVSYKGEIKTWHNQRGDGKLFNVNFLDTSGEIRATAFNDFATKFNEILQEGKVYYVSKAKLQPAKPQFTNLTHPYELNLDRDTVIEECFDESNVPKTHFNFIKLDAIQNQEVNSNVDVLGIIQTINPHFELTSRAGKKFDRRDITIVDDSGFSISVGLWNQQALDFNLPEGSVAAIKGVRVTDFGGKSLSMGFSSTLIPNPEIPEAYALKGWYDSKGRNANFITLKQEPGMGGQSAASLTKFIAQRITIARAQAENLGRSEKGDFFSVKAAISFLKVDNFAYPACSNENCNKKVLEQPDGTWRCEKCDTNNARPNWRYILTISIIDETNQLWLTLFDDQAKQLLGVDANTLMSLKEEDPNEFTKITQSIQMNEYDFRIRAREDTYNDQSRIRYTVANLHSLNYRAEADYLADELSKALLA
UniProt P26754: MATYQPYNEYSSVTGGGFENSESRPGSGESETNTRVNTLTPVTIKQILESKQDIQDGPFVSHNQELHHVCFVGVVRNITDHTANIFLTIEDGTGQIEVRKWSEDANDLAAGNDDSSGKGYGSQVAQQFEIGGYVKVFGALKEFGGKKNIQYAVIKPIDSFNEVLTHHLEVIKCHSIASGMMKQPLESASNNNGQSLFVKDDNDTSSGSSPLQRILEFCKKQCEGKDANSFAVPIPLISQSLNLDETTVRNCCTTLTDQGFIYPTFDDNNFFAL
UniProt P26755: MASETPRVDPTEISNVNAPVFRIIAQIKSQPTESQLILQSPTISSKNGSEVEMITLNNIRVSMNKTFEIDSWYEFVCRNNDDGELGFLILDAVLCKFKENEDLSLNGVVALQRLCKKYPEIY

binding | Substance
binds | t33 RPA mutant (S373P in DBD-B) (from UniProt P22336;P26754;P26755) (complex)
binds | zm1 (K494A) mutant of RPA (from UniProt P22336;P26754;P26755) (complex)
binds | RPA with wild type Rfa1 in yeast cells (from UniProt P22336;P26754;P26755) (complex)

From publication doi:10.1101/2022.02.05.479199
